From PubChem BioAssay record AID1918961 (NCATS, 2023).

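A myeloma cell line is exposed to compounds for two days, and live-cell ATP is measured by a glow read-out. Each compound was run as a dilution series from about 0.00003 to 92 µM. The value is the fitted AC50, the concentration giving half the maximal effect; a lower value means a more potent compound. Calls follow the NCATS curve-class score: active scores 40–100, while inconclusive scores 1–39 cover weak, poorly fitted, top-dose-only or opposite-direction curves.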

Values are in µM. Every entry below has the call inconclusive. These entries are mostly ones the record files as inconclusive; other results of the assay are not listed here. Potencies fitted to partial, single-point or poorly fitting curves are rough. Some entries filed as inconclusive have a full curve. The first word of each remark tells which way the curve ran; it can be opposite to the aim of the assay. Activity scores are not listed here.

SMILES: CCOC(=O)C1=C(C)NC2=C(C(=O)CC(C)(C)C2)C1c1ccc(-c2ccccc2)cc1 (stereo not drawn)
fitted potency (µM): 37.22
curve as filed: rising, partial curve, poor fit

SMILES: CC(C)(O)CC(=O)NCCn1ccc2ncnc(Nc3ccc(Oc4cccc(C(F)(F)F)c4)c(Cl)c3)c21
fitted potency (µM): 0.059
curve as filed: cytotoxic, full curve, poor fit

SMILES: O=C(Nc1ccccc1-c1cn2c(CN3CCNCC3)csc2n1)c1cnc2ccccc2n1
fitted potency (µM): 0.0033
curve as filed: rising, full curve, poor fit

SMILES: CCCCCCCCCCCC1=C(O)C(=O)C=C(O)C1=O
fitted potency (µM): 1.177
curve as filed: cytotoxic, full curve, poor fit

SMILES: O=C(O)CCC=CCC[C@@H]1[C@H](N2CCCCC2)[C@@H](O)C[C@@H]1OCc1ccc(-c2ccccc2)cc1
fitted potency (µM): 1.177
curve as filed: cytotoxic, full curve, poor fit

SMILES: CC(=O)O[C@H]1C[C@@H]2CC[C@H]3[C@H]4C[C@H]([N+]5(C)CCCCC5)[C@@H](OC(C)=O)[C@@]4(C)CC[C@@H]3[C@@]2(C)C[C@H]1[N+]1(C)CCCCC1
fitted potency (µM): 37.22
curve as filed: rising, single point

SMILES: CN(C)c1ccc(C(=C2C=CC(=[N+](C)C)C=C2)c2ccc(N(C)C)cc2)cc1
fitted potency (µM): 37.22
curve as filed: rising, partial curve, poor fit

SMILES: CCCc1cc(C(N)=S)ccn1
fitted potency (µM): 5.899
curve as filed: rising, full curve, poor fit

SMILES: CCOC(=O)C1=C[C@@H](OC(CC)CC)[C@H](NC(C)=O)[C@@H](N)C1
fitted potency (µM): 0.0418
curve as filed: rising, full curve, poor fit

SMILES: Cc1ccc(CN2CCNCC2)cc1NC(=O)CNc1ccc(F)c(F)c1
fitted potency (µM): 0.0019
curve as filed: rising, full curve, poor fit

SMILES: COc1cc(NS(=O)(=O)c2ccc(N)cc2)nc(OC)n1
fitted potency (µM): 0.0021
curve as filed: cytotoxic, full curve, poor fit

SMILES: Clc1ccc2c(c1)C(N1CCNCC1)=Nc1ccccc1O2
fitted potency (µM): 20.93
curve as filed: rising, partial curve, poor fit

SMILES: CN1CCc2c(n(Cc3ccc(C(=O)NO)cc3)c3ccccc23)C1
fitted potency (µM): 33.17
curve as filed: rising, partial curve, poor fit

SMILES: CN1CCN(c2cccc(Nc3nc4c(-c5ccc(S(C)(=O)=O)cc5)cccn4n3)c2)CC1
fitted potency (µM): 33.17
curve as filed: rising, partial curve, poor fit

SMILES: CCN(CC)CCCCNc1ncc2c(n1)N(C)C(=O)N(c1c(Cl)c(OC)cc(OC)c1Cl)C2
fitted potency (µM): 0.4686
curve as filed: rising, full curve, poor fit

SMILES: N#Cc1c(O)c2c(-c3ccc(-c4ccccc4O)cc3)csc2[nH]c1=O
fitted potency (µM): 0.4176
curve as filed: rising, full curve, poor fit

SMILES: C[C@@H]1CCO[C@H]2Cn3cc(C(=O)NCc4ccc(F)cc4F)c(=O)c(O)c3C(=O)N12
fitted potency (µM): 37.22
curve as filed: cytotoxic, partial curve, poor fit

SMILES: N#Cc1ccc(Oc2ccc3c(c2)COB3O)cc1
fitted potency (µM): 18.65
curve as filed: cytotoxic, partial curve, poor fit

SMILES: COc1ccc(-c2oc3c(CC=C(C)C)c(O)cc(O)c3c(=O)c2O)cc1
fitted potency (µM): 11.77
curve as filed: cytotoxic, single point

SMILES: Cc1cc(Cl)ccc1OCCCC(=O)NO
fitted potency (µM): 9.35
curve as filed: cytotoxic, partial curve, poor fit

SMILES: Nc1ccc(-c2ccc3ncc4ccc(=O)n(-c5cccc(C(F)(F)F)c5)c4c3c2)cn1
fitted potency (µM): 0.0053
curve as filed: cytotoxic, full curve

Once more, the final 2:

Result for Cc1cc(Cl)ccc1OCCCC(=O)NO was fitted potency 9.35 µM (cytotoxic, partial curve, poor fit).
Result for Nc1ccc(-c2ccc3ncc4ccc(=O)n(-c5cccc(C(F)(F)F)c5)c4c3c2)cn1 was fitted potency 0.0053 µM (cytotoxic, full curve).